Values from PubChem BioAssay AID1259254 (NCATS, 2017)
Assay: 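Genome-wide screen for genes that prevent DNA re-replication in cancer cells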 (primary screen). System: human HCT116 colorectal cancer cells. Reagents: single siRNA against human genes. Duration: 3 days. Measured: 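Imaged Hoechst DNA stain sorts each cell into a cycle phase by DNA amount; per plate, G2 fraction set to 0% for non-targeting and 100% for GMNN siRNA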. Scale: G2 robust z-score and G2 cells, % of GMNN control: higher = more G2 cells, more excess DNA replication; raw share of cells in G2: higher = larger share of cells with G2 DNA content. Call rule: 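An siRNA counts as active if its G2 robust z-score lies at least 5 MADs above the screen median; here such calls match roughly 38% of GMNN control or more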.
This is an unselected part of about 59,000 deposited reagents. About 1,550 of them (2.6%) count as active. 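G2 share is only a proxy for re-replication; each gene was hit by three separate siRNAs, and active genes were retested.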 Raw values are not corrected between plates. The numbers tell different reagents against one gene apart. Not given: the amount of reagent.

The opening 8 records, to show the layout:
gene symbol,siRNA no.,G2 robust z-score,"G2 cells, % of GMNN control",raw share of cells in G2 (%),Outcome
DIXDC1,1,-0.722,-2.12,3.19,inactive
DIXDC1,2,-0.627,-1.44,2.55,inactive
DIXDC1,3,2.72,22.1,9.93,inactive
GFER,1,-0.417,0.0359,5.25,inactive
GFER,2,8.31,61.4,28.6,active
GFER,3,-0.629,-1.46,3.14,inactive
TRAPPC13P1,1,3.3,26.2,11.4,inactive
TRAPPC13P1,2,0.0366,3.22,4.99,inactive

Main list, from the start:
gene symbol,siRNA no.,G2 robust z-score,"G2 cells, % of GMNN control",raw share of cells in G2 (%),Outcome
DIXDC1,1,-0.722,-2.12,3.19,inactive
DIXDC1,2,-0.627,-1.44,2.55,inactive
DIXDC1,3,2.72,22.1,9.93,inactive
GFER,1,-0.417,0.0359,5.25,inactive
GFER,2,8.31,61.4,28.6,active
GFER,3,-0.629,-1.46,3.14,inactive
TRAPPC13P1,1,3.3,26.2,11.4,inactive
TRAPPC13P1,2,0.0366,3.22,4.99,inactive
TRAPPC13P1,3,3.02,24.2,12.2,inactive
BMP3,1,-0.323,0.694,5.63,inactive
BMP3,2,2.85,23,12.5,inactive
BMP3,3,-0.132,2.04,4.32,inactive
TRPC6,1,-0.555,-0.935,4.95,inactive
TRPC6,2,0.0796,3.53,5.97,inactive
TRPC6,3,0.998,9.99,8.27,inactive
DEFB131A,1,-0.528,-0.746,2.93,inactive
DEFB131A,2,-0.157,1.86,4.35,inactive
DEFB131A,3,0.0428,3.27,4.45,inactive
CCDC116,1,-0.634,-1.49,2.29,inactive
CCDC116,2,1.34,12.4,8.05,inactive
CCDC116,3,-0.851,-3.02,1.95,inactive
CIMIP2B,1,0.968,9.78,7.5,inactive
CIMIP2B,2,-0.823,-2.82,2.34,inactive
CIMIP2B,3,0.821,8.75,6.78,inactive
ZNF107,1,1.34,12.4,7.18,inactive
ZNF107,2,-0.0495,2.62,7.09,inactive
ZNF107,3,2.48,20.4,10,inactive
SSX2IP,1,-0.364,0.405,5.14,inactive
SSX2IP,2,0.564,6.93,8.89,inactive
SSX2IP,3,0.544,6.79,7.05,inactive
GABRQ,1,-0.259,1.15,4.82,inactive
GABRQ,2,0.141,3.96,6.73,inactive
GABRQ,3,-0.734,-2.19,4.04,inactive
WARS1P1,1,0.453,6.15,6.67,inactive
WARS1P1,2,-0.679,-1.81,3.37,inactive
WARS1P1,3,1.58,14.1,9.41,inactive
SACK1E,1,-0.997,-4.05,2.16,inactive
SACK1E,2,-0.632,-1.48,3.65,inactive
SACK1E,3,0.91,9.37,6.29,inactive
LOC728903 (retired record),1,-0.464,-0.297,2.99,inactive
LOC728903 (retired record),2,-0.972,-3.87,2.45,inactive
LOC728903 (retired record),3,0.307,5.12,4.97,inactive
ZMYM4,1,-0.315,0.752,5.46,inactive
ZMYM4,2,-0.183,1.68,4.56,inactive
ZMYM4,3,1.86,16.1,9.03,inactive
LAS1L,1,0.65,7.54,6.62,inactive
LAS1L,2,-0.155,1.88,4.01,inactive
LAS1L,3,0.307,5.13,3.96,inactive
B3GAT1,1,-0.413,0.0588,4.01,inactive
B3GAT1,2,0.212,4.46,5.67,inactive
B3GAT1,3,-0.295,0.892,6.57,inactive
TMEM259,1,-0.645,-1.57,3.42,inactive
TMEM259,2,-0.718,-2.09,2.35,inactive
TMEM259,3,4.58,35.2,14.1,inactive
KIF15,1,1.06,10.4,8.69,inactive
KIF15,2,-0.403,0.131,4.49,inactive
KIF15,3,7.01,52.3,29.4,active
AOX1,1,-0.432,-0.0707,5.57,inactive
AOX1,2,-0.706,-2,4.46,inactive
AOX1,3,-0.13,2.05,4.34,inactive
ANGPTL3,1,0.485,6.38,6.08,inactive
ANGPTL3,2,-0.387,0.241,6.27,inactive
ANGPTL3,3,-0.748,-2.29,3.43,inactive
ITPRIPL2,1,5.58,42.3,18.7,active
ITPRIPL2,2,1.49,13.5,7.47,inactive
ITPRIPL2,3,0.0654,3.43,3.85,inactive
RLF,1,-0.737,-2.22,4.21,inactive
RLF,2,-0.57,-1.04,4.28,inactive
RLF,3,-0.196,1.58,4.67,inactive
